Paper PMC12428246
No constants are given. Whether binding was seen depends on the method and setting. Binding seen in cells or lysates may run through a third protein. Some entries that bind do so weakly or less than the wild type. Tags and fused reporters may be left off the sequences shown.

The chains behind the UniProt entries cited, without tags or fusion partners.
UniProt P98175: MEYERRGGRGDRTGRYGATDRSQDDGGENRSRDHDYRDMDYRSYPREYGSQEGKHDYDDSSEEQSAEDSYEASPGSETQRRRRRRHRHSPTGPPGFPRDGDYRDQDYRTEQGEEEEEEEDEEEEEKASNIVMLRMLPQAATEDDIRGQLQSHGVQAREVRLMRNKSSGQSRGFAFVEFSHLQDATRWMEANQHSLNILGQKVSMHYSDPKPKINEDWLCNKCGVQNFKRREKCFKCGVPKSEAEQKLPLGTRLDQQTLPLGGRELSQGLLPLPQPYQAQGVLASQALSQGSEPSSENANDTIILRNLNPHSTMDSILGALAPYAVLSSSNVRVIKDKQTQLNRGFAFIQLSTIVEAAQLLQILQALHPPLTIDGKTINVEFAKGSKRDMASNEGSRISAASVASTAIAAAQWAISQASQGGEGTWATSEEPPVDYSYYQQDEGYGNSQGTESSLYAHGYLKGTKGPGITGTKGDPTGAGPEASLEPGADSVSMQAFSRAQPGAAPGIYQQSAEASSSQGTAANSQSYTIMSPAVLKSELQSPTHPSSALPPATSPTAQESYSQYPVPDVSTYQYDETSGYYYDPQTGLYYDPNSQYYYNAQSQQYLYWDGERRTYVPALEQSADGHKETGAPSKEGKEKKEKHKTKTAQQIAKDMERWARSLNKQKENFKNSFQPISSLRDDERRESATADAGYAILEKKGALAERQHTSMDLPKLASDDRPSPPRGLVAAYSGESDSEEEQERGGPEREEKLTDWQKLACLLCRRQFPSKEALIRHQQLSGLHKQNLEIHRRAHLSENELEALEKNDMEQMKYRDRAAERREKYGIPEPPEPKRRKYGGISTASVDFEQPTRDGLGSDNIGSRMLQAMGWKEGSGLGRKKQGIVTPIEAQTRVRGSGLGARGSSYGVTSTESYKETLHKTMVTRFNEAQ

T1: MP60, 60-amino-acid micropeptide encoded by LINC01138 (ENST00000614292), Flag knock-in (human (endogenous in 293T))
T1 sequence: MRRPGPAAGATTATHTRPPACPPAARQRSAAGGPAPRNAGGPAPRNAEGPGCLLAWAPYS


Key:
[1] = biological target: T1, MP60, 60-amino-acid micropeptide encoded by LINC01138 (ENST00000614292), Flag knock-in (human (endogenous in 293T)); assay: co-IP; cell lysates in IP Lysis Buffer, primary antibody (anti-Flag or anti-RBM10) overnight at 4 °C, Protein A agarose beads 2 h at 4 °C, three washes, immunoblot
[2] = biological target: RNA-binding motif protein 10 (RBM10) (human (endogenous in 293T)) (UniProt P98175); assay: as above

Molecule	binding [1]	binding [2]
RNA-binding motif protein 10 (RBM10) (from UniProt P98175 1-930)	binds	
MP60, 60-amino-acid micropeptide encoded by LINC01138 (ENST00000614292), Flag knock-in (peptide) MRRPGPAAGATTATHTRPPACPPAARQRSAAGGPAPRNAGGPAPRNAEGPGCLLAWAPYS		binds
